The target of experiment [1] is CaPol32 (F398A, F399A) (GST tag cleaved) (C. albicans). The experiment is described as follows: condition: 250 μM CaPCNA injected into 20 μM CaPol32 (F398A, F399A); ITC; MicroCal PEAQ-ITC, 25°C, 20 mM HEPES pH 7.4, 150 mM NaCl; 20 μM CaPol32 or CaPol32 (F398A, F399A) in the cell, 250 μM CaPCNA in the syringe, 25 injections of 1.5 μl; one-site binding model; both purified.

Experiment [2] concerns the target GST-CaPol32 (F398A, F399A) (C. albicans). The experiment is described as follows: pull-down; GST-CaPol32 or GST-CaPol32 (F398A, F399A) bound to glutathione-Sepharose beads, mixed with 0.5 µg CaPCNA (equimolar), overnight; washed with 50 mM Tris-HCl pH 7.5, 150 mM NaCl, 5 mM DTT, 0.01% NP-40, 10% glycerol; eluted in SDS loading buffer; western blot with anti-CaPCNA antibody; both purified.

Experiment [3] has as its target GST-CaPol32 (wild type) (C. albicans). The experiment is described as above.

The values that follow come from paper PMC9828637, “Pol32, an accessory subunit of DNA polymerase delta, plays an essential role in genome stability and pathogenesis of Candida albicans” (Gut Microbes, 2023).

Results are given in words; binding and its absence hold for the method and conditions named. Some binding calls cover weakened binding; strength is not graded here.

B1: CaPCNA (natural protein, C. albicans, UniProt Q5AMN0 1-259, looked up)
chain: MLEGKFEEAALLKKVVEAIKDCVKKCNFNCSEHGITVQAVDDSRVLLVSLLIGQTSFSEYRCDRDVTLGIDLESFSKIIKSANNEDFLTLLAEDSPDQIMAILEEKQKEKISEYSLKLMDIDSEFLQIDDMEYDAVVNMPSSDFAKLVRDLKNLSESLRVVVTKDSVKFTSEGDSGSGSVILKPYTNLKNERESVTISLDDPVDLTFGLKYLNDIVKAATLSDVITIKLADKTPALFEFKMQSGGYLRFYLAPKFDDDE
notes: PCNA (proliferating cell nuclear antigen, DNA sliding clamp), C. albicans; it calls PCNA trimeric without measuring this here; also called proliferating cell nuclear antigen of C. albicans; source: E. coli BL21 DE3, purified (glutathione-Sepharose 4B, GST cleaved with PreScission protease)
Turning to B1, the values for the binding entry in experiment [1], in experiment [2] and in experiment [3] were “no binding”, “no binding (tested: 0.5 µg CaPCNA)” and “binds”, respectively.
